Data from publication PMC5979558.

Target: His6-tagged HtrA
Experiment: affinity purification with mass spectrometry; His6-HtrA (1.5 uM) as bait on Ni-NTA agarose; same conditions as for ClpBLi-Trap but no ATP in the buffers; L. interrogans lysate; LC-MS-MS/MS; only the target purified

B1: 50S ribosomal protein L19 (protein, UniProt Q72S27 1-138)
chain: MNQLLREVLTPDAERTQNFTVGDTVKVHYKIVESGKERVQIYEGVVISVANEANGKTFTVRRVSYDVGVERIFPLFSPKIAKIELIRKGKVRRAKLYYLRNLAGKAARIKELKGGKALVSEDRKRQQAAAATKSTTTE
  binding: binds

These are yes or no findings as the source states them, for the method shown. Binding seen in cells or lysates may run through a third protein. These calls come from enrichment with a bait or labelling near it, and not all partners need be listed.
